In PMC10938004:
No constants are given. Whether binding was seen depends on the method and setting. A result given as binding can be weak or reduced; the word gives no strength. Where a sequence is shown, tags or fusion partners need not be part of it.

Amino acid sequences for entries named in this document (tags omitted). A change or cut given only in a name is not applied to a line headed by its entry.
UniProt Q969V5: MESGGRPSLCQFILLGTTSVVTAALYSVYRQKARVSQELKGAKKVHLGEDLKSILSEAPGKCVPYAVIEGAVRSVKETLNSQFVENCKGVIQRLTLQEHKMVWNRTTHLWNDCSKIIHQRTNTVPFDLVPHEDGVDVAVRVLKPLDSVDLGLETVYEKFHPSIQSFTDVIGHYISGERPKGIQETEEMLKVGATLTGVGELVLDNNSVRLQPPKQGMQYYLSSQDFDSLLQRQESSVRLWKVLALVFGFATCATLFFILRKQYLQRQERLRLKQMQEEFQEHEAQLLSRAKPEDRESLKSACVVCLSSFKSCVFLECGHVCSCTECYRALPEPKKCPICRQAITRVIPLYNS

Molecular target: GST-MUL1 (human) (UniProt Q969V5)
Assay: pull-down; GST-MUL1 incubated with WT or H135Q His-tagged NME3 in the presence of ATP for 30 min, then glutathione beads pulldown; Western blot with MUL1 and His antibodies; both purified

binding: binds
B1: His-tagged NME3 WT (protein, UniProt Q13232 1-169)
chain: MICLVLTIFANLFPAACTGAHERTFLAVKPDGVQRRLVGEIVRRFERKGFKLVALKLVQASEELLREHYAELRERPFYGRLVKYMASGPVVAMVWQGLDVVRTSRALIGATNPADAPPGTIRGDFCIEVGKNLIHGSDSVESARREIALWFRADELLCWEDSAGHWLYE
